PubChem BioAssay AID686943, Drosophila RNAi Screening Center – 2013

Purpose: 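Search across the genome for regulators of signalling from receptor tyrosine kinase to ERK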 (primary screen)
Cell system: Drosophila S2R+ haemocyte-like cells expressing YFP-tagged ERK (Rolled)
Reagent: long dsRNA against Drosophila genes
Challenge: insulin stimulation versus unstimulated cells; dose and duration not given
Measured: 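Per-plate z-scores of phospho-ERK immunostaining normalised to YFP-tagged ERK, measured with and without insulin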
Reading the numbers: replicate 1, z-score of dpERK with insulin and replicate 2, z-score of dpERK with insulin: higher = more active ERK per ERK-YFP after insulin
The screen tested about 23,000 reagents; below is a random part of those with a known target gene and a result. 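Extra replicates exist only for a retested subset of genes; insulin dose and duration not given; both raised and lowered dpERK matter.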 Further read-outs or replicates are left out here. Not stated in the record: the amount of reagent, the time to read-out.

The opening 2 entries, ahead of the listing:
CG14659 [DRSC12245]: replicate 1, z-score of dpERK with insulin = 0.35; replicate 2, z-score of dpERK with insulin = 0.47
CG14154 [DRSC10156]: replicate 1, z-score of dpERK with insulin = -0.6; replicate 2, z-score of dpERK with insulin = -0.15

Results, from the first entry:
CG14659 [DRSC12245]: replicate 1, z-score of dpERK with insulin = 0.35; replicate 2, z-score of dpERK with insulin = 0.47
CG14154 [DRSC10156]: replicate 1, z-score of dpERK with insulin = -0.6; replicate 2, z-score of dpERK with insulin = -0.15
CG17472 [DRSC02622]: replicate 1, z-score of dpERK with insulin = 0.93; replicate 2, z-score of dpERK with insulin = 0.62
CG1979 [DRSC12495]: replicate 1, z-score of dpERK with insulin = -0.04; replicate 2, z-score of dpERK with insulin = -0.06
PolD3 [DRSC01961]: replicate 1, z-score of dpERK with insulin = -0.41; replicate 2, z-score of dpERK with insulin = -0.25
CG13360 [DRSC18536]: replicate 1, z-score of dpERK with insulin = 1.54; replicate 2, z-score of dpERK with insulin = 0.68
Roe1 [DRSC07534]: replicate 1, z-score of dpERK with insulin = -0.31; replicate 2, z-score of dpERK with insulin = 0.15
CG4267 [DRSC00102]: replicate 1, z-score of dpERK with insulin = -1.81; replicate 2, z-score of dpERK with insulin = -3.97
CG4267 [DRSC00647]: replicate 1, z-score of dpERK with insulin = 0.34; replicate 2, z-score of dpERK with insulin = 0.54
CG17249 [DRSC08517]: replicate 1, z-score of dpERK with insulin = 0.19; replicate 2, z-score of dpERK with insulin = 0.01
Dsp1 [DRSC20315]: replicate 1, z-score of dpERK with insulin = 0; replicate 2, z-score of dpERK with insulin = -1.69
CG5001 [DRSC00673]: replicate 1, z-score of dpERK with insulin = 0.92; replicate 2, z-score of dpERK with insulin = -0.35
CG31139 [DRSC21393]: replicate 1, z-score of dpERK with insulin = 0.41; replicate 2, z-score of dpERK with insulin = -0.78
CG4594 [DRSC02762]: replicate 1, z-score of dpERK with insulin = -0.4; replicate 2, z-score of dpERK with insulin = 0.02
CG12637 [DRSC17845]: replicate 1, z-score of dpERK with insulin = -0.62; replicate 2, z-score of dpERK with insulin = -0.2
Bdbt [DRSC15218]: replicate 1, z-score of dpERK with insulin = -0.4; replicate 2, z-score of dpERK with insulin = -0.12
PGRP-SC1a [DRSC06482]: replicate 1, z-score of dpERK with insulin = -0.13; replicate 2, z-score of dpERK with insulin = 0.29
Tbc1d22 [DRSC15867]: replicate 1, z-score of dpERK with insulin = 0.39; replicate 2, z-score of dpERK with insulin = 0.11
jagn [DRSC12152]: replicate 1, z-score of dpERK with insulin = -0.4; replicate 2, z-score of dpERK with insulin = 0.28
CG17376 [DRSC21717]: replicate 1, z-score of dpERK with insulin = 0.11; replicate 2, z-score of dpERK with insulin = -0.82
CG16743 [DRSC02514]: replicate 1, z-score of dpERK with insulin = 0.28; replicate 2, z-score of dpERK with insulin = 0.33
Pcmt [DRSC12363]: replicate 1, z-score of dpERK with insulin = 0.1; replicate 2, z-score of dpERK with insulin = -0.33
CG15625 [DRSC00460]: replicate 1, z-score of dpERK with insulin = -0.31; replicate 2, z-score of dpERK with insulin = -0.45
Sil1 [DRSC14242]: replicate 1, z-score of dpERK with insulin = 0.65; replicate 2, z-score of dpERK with insulin = -0.13
CG3638 [DRSC18533]: replicate 1, z-score of dpERK with insulin = 0.29; replicate 2, z-score of dpERK with insulin = 1.71
CG2964 [DRSC00554]: replicate 1, z-score of dpERK with insulin = 0.55; replicate 2, z-score of dpERK with insulin = 0.08
Ns3 [DRSC18607]: replicate 1, z-score of dpERK with insulin = 0.73; replicate 2, z-score of dpERK with insulin = -0.26
Sbat [DRSC00160]: replicate 1, z-score of dpERK with insulin = -0.41; replicate 2, z-score of dpERK with insulin = 0.02
CG32344 [DRSC08578]: replicate 1, z-score of dpERK with insulin = -0.16; replicate 2, z-score of dpERK with insulin = -0.01
RyR [DRSC07543]: replicate 1, z-score of dpERK with insulin = 0.09; replicate 2, z-score of dpERK with insulin = 0.18
CG30184 [DRSC22277]: replicate 1, z-score of dpERK with insulin = -0.02; replicate 2, z-score of dpERK with insulin = -0.18
